Source: PubChem BioAssay AID1671190 (National Center for Advancing Translational Sciences (NCATS), 2021)
The whole screen tested about 580,000 compounds, of which about 6,100 (1.1%) were called active. The shares of active, inactive and inconclusive entries below differ from those in the screen. Calls come from the whole dose curve; as a rule, active = well fitted inhibition curve with a large enough effect; inconclusive = small, poorly fitted or top-dose-only effect, or another doubt; inactive = no such curve, though single readings can be large or run the other way. Where the call is inconclusive, the potency comes from a doubtful curve fit.

By UniProt entry, the sequences of proteins in these tests, tags left out. Where a name states a change or a piece, a line headed by the entry shows the natural chain unless it says otherwise.
UniProt P18054: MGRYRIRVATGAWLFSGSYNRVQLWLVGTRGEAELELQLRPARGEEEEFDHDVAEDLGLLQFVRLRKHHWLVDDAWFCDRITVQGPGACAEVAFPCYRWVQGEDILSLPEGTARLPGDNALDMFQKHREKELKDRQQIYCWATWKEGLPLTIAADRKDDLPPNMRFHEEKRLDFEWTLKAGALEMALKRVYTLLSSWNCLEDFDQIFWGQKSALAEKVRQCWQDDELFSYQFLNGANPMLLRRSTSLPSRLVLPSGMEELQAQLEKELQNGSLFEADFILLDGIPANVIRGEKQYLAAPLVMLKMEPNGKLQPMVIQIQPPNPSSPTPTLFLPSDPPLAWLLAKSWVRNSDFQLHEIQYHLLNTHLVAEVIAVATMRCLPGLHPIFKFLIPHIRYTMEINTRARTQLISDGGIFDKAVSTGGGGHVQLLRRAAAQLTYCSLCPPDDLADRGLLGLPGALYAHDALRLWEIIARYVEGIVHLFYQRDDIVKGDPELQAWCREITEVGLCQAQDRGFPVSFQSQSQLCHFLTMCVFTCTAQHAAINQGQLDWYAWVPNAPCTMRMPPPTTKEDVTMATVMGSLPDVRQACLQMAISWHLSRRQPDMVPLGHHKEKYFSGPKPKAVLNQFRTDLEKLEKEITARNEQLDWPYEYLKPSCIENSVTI

target: Polyunsaturated fatty acid lipoxygenase ALOX12 (Homo sapiens) (UniProt P18054); assay: Primary qHTS assay for inhibitors of human arachidonate 12S-lipoxygenase (ALOX12): Round 2; conditions: purified 12hLO, xylenol orange hydroperoxide absorbance; activity change, negative = inhibition: at 108 µM (top of the series) unless noted
Method in brief: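 Hydroperoxide product was detected by ferrous iron/xylenol orange as the 573 to 405 nm absorbance ratio. Arachidonic acid at 40 uM (final) was turned over for 30 min at room temperature by 150 nM human 12hLO, pH 7.0 Hepes buffer, after 15 min compound preincubation.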
% is set by controls: 0 for no effect and ±100 for the full control effect; potency is the fitted concentration of half-maximal effect.

Compound	Potency	activity change, negative = inhibition
COc1ccc2[nH]c(C)c(CCNC(=S)Nc3ccccc3C)c2c1	inconclusive: 44.7 µM [inhibitor, partial curve, poor fit]	
Cc1ccccc1Cn1cc(-c2ccncc2)cc1C(=O)O	inconclusive: 14.1 µM [inhibitor, full curve, poor fit]	
CCCN(C(=O)COc1cc(=O)n(CC)c2ccccc12)c1ccc(C(C)C)cc1	inconclusive: 56.2 µM [inhibitor, partial curve, poor fit]	
C[S+](=O)([O-])N1Cc2ccccc2CC2(CCCCN2Cc2ccccn2)C1 (configuration not stated)	inconclusive: 0.716 µM [inhibitor, partial curve]	
OCCN1CCN(c2cc(-c3nc4ccccc4s3)c3ccccc3n2)CC1	inconclusive: 50.1 µM [inhibitor, single point]	
Brc1ccc(-c2nnc3ccc(SCc4ccco4)nn23)cc1	inconclusive: 50.1 µM [inhibitor, partial curve, poor fit]	
CCCCN(CCCC)Cc1cc(=O)oc2cc(C)c(O)cc12	active: 39.8 µM	
CC(=O)Nc1ccc(CN2CCn3c(nnc3C3CCNCC3)C2)cc1	active: 11.2 µM	
Cc1ccc(-c2nc(C(=O)NCC3CCCO3)cc3c2[nH]c2ccccc23)cc1 (configuration not stated)	inactive	
CCCN1C(=O)/C(=C/c2ccc(C)o2)SC1=Nc1ccc(OCC)cc1	inconclusive: 35.5 µM [inhibitor, partial curve, poor fit]	
CCCNC(=O)c1cnc2sc(N3CCCCCC3)nn2c1=O		inconclusive: -31.4% [inhibitor]
CCOC(=O)c1c(NC(=O)c2cc3nc(-c4ccccc4)cc(C(F)(F)F)n3n2)sc2c1CCC(C)C2 (configuration not stated)	inconclusive: 100 µM [inhibitor, partial curve, poor fit]	
Cc1noc(C)c1NC(=O)N(C)C[C@H]1Oc2c(NC(=O)c3ccncc3)cccc2C(=O)N([C@H](C)CO)C[C@@H]1C	inconclusive: 70.8 µM [inhibitor, partial curve, poor fit]	
CCOc1cc(S(=O)(=O)N2CCN(C(=O)c3ccco3)CC2)ccc1F	inconclusive: 35.5 µM [inhibitor, partial curve, poor fit]	
Oc1c(Br)cc(C2N=C(c3ccccc3Cl)NO2)cc1Br (configuration not stated)	inconclusive: 3.55 µM [inhibitor, full curve, poor fit]	
Cc1ccc(Nc2nc(NCc3ccc(Cl)cc3)nc(N)c2[N+](=O)[O-])cc1	inconclusive: 35.5 µM [inhibitor, partial curve, poor fit]	
